Results: patent US4607023 (dated 1986)

Legend:
[1] = general procedure: hybrid (solid and solution phase) peptide synthesis; Boc-amino acid on 2% crosslinked Merrifield resin; 1% crosslinked p-methyl benzhydrylamine (MBHA) resin for octapeptide; DCCI; DCCI/HOBt for repeat couplings; azide method for fragment couplings; settings: acetate (HOAc) salt
[2] = general procedure: hybrid (solid and solution phase) peptide synthesis; MBHA resin; DCCI; DCCI/HOBt for repeat couplings; azide method for fragment couplings; settings: whole synthesis, scale 2 mmoles, acetate (HOAc) salt
[3] = late stage modification step, HPLC

Substance: (HCl) H-Asp(Bzl)-Arg(NO2)-Ile-Gly-OCH3
- purity (crude or final not stated) [1, 3]: HPLC 96%
- step yield ([1]; late stage modification step): 94%

Substance: (HCl) H-Ile-Asp(Bzl)-Arg(NO2)-Ile-Gly-OCH3
- purity (crude or final not stated) [1, 3]: HPLC 97%
- step yield ([1]; late stage modification step): 100% yield

Substance: (TFA) H-Arg-Ile-Asp-Arg-Ile-Gly-Ala-Gln-Ser-Gly-Leu-Gly-Cys(Acm)-Asn-Ser-Phe-Arg-Tyr-OH
- crude HPLC purity [1, 3]: 90%
- step yield ([1]; late stage modification step): 88% yield

Substance: Boc-AQS(Bn)G-OMe
- final HPLC purity ([1]; whole synthesis, HPLC): 94.6%
- isolated yield ([1]; whole synthesis): 41% yield

Substance: Boc-AQSG-NHNH2
- purity (crude or final not stated) [1, 3]: 94%

Substance: Boc-AQSG-OMe
- purity (crude or final not stated) [1, 3]: 94.5%
- step yield ([1]; late stage modification step): 100%

Substance: Boc-Ala-Gln-Ser-Gly-Leu-Gly-Cys(Acm)-Asn-Ser-Phe-Arg-Tyr-NH2.HOAc
- crude HPLC purity ([1]; coupling step, HPLC): 80.4%

Substance: Boc-Ala-Gln-Ser-Gly-Leu-Gly-Cys(Acm)-Asn-Ser-Phe-Arg-Tyr-OH.HOAC
- final HPLC purity ([1]; coupling step, HPLC): 97.1%
- step yield ([1]; coupling step): 39%

Substance: Boc-Arg-Arg-Ser-Ser-Cys(Acm)-Phe-Gly-Gly-Arg-Ile-Asp-Arg-Ile-Gly-Ala-Gln-Ser-Gly-Leu-Gly-Cys(Acm)-Asn-Ser-Phe-Arg-Tyr-OH.6HOAc
- final HPLC purity ([1]; coupling step, HPLC): 92% pure

Substance: Boc-Arg-Arg-Ser-Ser-Cys(Acm)-Phe-Gly-Gly-Ome.2HOAc
- final purity (method not given) ([1]; whole synthesis, HPLC): 89%
- final HPLC purity ([1]; whole synthesis, HPLC, run 1): 96% and 89%
- crude mass ([1]; whole synthesis, scale 6 mm): 5.45 g
- isolated mass ([1]; whole synthesis, scale 6 mm): 1.41 g
- isolated yield ([1]; whole synthesis, scale 6 mm): 23%

Substance: Boc-Arg-Arg-Ser-Ser-Cys(Acm)Phe-Gly-Gly-NHNH2.2HOAc
- final HPLC purity [1, 3]: 96%
- purity (crude or final not stated) [1, 3]: 96%

Substance: Boc-Arg-Ile-Asp-Arg-Ile-Gly-Ala-Gln-Ser-Gly-Leu-Gly-Cys(Acm)-Asn-Ser-Phe-Arg-Tyr-NH2.5HOAc
- final HPLC purity ([1]; coupling step, HPLC): 94%

Substance: Boc-Arg-Ile-Asp-Arg-Ile-Gly-Ala-Gln-Ser-Gly-Leu-Gly-Cys(Acm)-Asn-Ser-Phe-Arg-Tyr-OH.3HOAc
- final HPLC purity ([1]; coupling step, HPLC): 94%
- step yield ([1]; coupling step): 71% yield

Substance: Boc-Arg-Ile-Asp-Arg-Ile-Gly-NHNH2.2HOAc
- step yield ([1]; late stage modification step): 100% yield

Substance: Boc-Arg-Ile-Asp-Arg-Ile-Gly-OCH3.2HOAc
- crude HPLC purity [1, 3]: HPLC 93%
- final HPLC purity [1, 3]: HPLC 97.5%
- step yield ([1]; late stage modification step, corr. for peptide content): 60% yield

Substance: Boc-D(OBn)[Arg(NO2)]IG-OMe
- purity (crude or final not stated) ([1]; coupling step, HPLC): HPLC 94%
- step yield ([1]; coupling step): 89%

Substance: Boc-ID(OBn)[Arg(NO2)]IG-OMe
- purity (crude or final not stated) ([1]; coupling step, HPLC): HPLC 95%
- step yield ([1]; coupling step): 94%

Substance: Boc-[Arg(NO2)]ID(OBn)[Arg(NO2)]IG-OMe
- purity (crude or final not stated) ([1]; coupling step, HPLC): HPLC 96%
- step yield ([1]; coupling step): 91% yield

Substance: H.Ala-Gln-Ser-Gly-Leu-Gly-Acm(Cys)-Asn-Ser-Phe-Arg-Tyr-NH2 2HOAc salt
- final HPLC purity [1, 3]: 96.7%
- step yield ([1]; late stage modification step): 58.0%

Substance: H.Ala-Gln-Ser-Gly-Leu-Gly-Acm(Cys)-Asn-Ser-Phe-Arg-Tyr-OH 2HOAc salt
- final HPLC purity [1, 3]: 99.3%
- step yield ([1]; late stage modification step): 75.0%

Substance: H.Leu-Gly-Cys(Acm)-Asn-Ser-Phe-Arg-Tyr-NH2.2HOAc
- isolated mass [2]: 396 mg
- isolated yield [2]: 14%
- final HPLC purity ([1]; whole synthesis, HPLC): 98.7%

Substance: H.Leu-Gly-Cys(Acm)-Asn-Ser-Phe-Arg-Tyr-OH.HOAc
- final HPLC purity ([1]; whole synthesis, HPLC): 97.1%
- isolated yield ([1]; whole synthesis): (37%)

Substance: PEPTIDE1{R.R.S.S.C.F.G.G.R.I.D.R.I.G.A.Q.S.G.L.G.C.N.S.F.R.Y.[am]}$PEPTIDE1,PEPTIDE1,5:R3-21:R3$$$V2.0
- final HPLC purity [1, 3]: 97%
- step yield ([1]; late stage modification step): 79.9%

Substance: PEPTIDE1{R.R.S.S.C.F.G.G.R.I.D.R.I.G.A.Q.S.G.L.G.C.N.S.F.R.Y}$PEPTIDE1,PEPTIDE1,5:R3-21:R3$$$V2.0
- final HPLC purity ([1]; late stage modification step, HPLC, run 1): 100% (HPLC)

Where “and” joins values, the source holds several entries; their conditions need not be identical. Identical values can stand only once. For some assays here: Some peptides are written in HELM: one residue between dots, names in brackets for other building blocks, links after the first $. Square brackets hold non-standard residues; d marks the D form. * marks the point of attachment. Arg(NO2) = N=C(NCCC[C@H](N)C(=O)O)N[N+](=O)[O-]; Boc = CC(C)(C)OC(=O)*; OBn = c1ccc(CO*)cc1; Bn = c1ccc(C*)cc1; NHNH2 = NN*
